Each structure is given as a SMILES string.

This series deals with doxorubicin-induced cerebral oxidative stress in mice. Briefly: In vivo assay of cerebral oxidative stress induced in mice by doxorubicin (model and oxidized animals). The protocol: The assay was carried out on compounds (1)-(5) and (7)-(11) and on edaravone (E) as comparative compound.
10 mice were used for each treatment group. For each compound 50 mg/kg were administered intraperitoneally (IP) for three consecutive days (day 0, 1 and 2); half the animals (5) also received IP 16.7 mg/kg of doxorubicin immediately after the first treatment (day 0). On the day after the last administration (day 3) the animals were killed by neck dislocation and the brains were removed, weighed and frozen in liquid nitrogen.
For the analyses of oxidative stress, 100 mg/ml of brain homogenate was prepared in HEB^(*) buffer (pH 7.4 EDTA/HEPES^(**)) containing a mixture of enzyme inhibitors (Leupeptin, Pepstatin, Aprotinin, BHA).
The evaluation parameters were: • BrW/BWi: ratio between final brain weight and initial body weight (day 0); • Prot. Hmg: total proteins in the homogenate (BCA method, i.e. bicinchoninic acid); • Prot. Ox: oxidized proteins in the Hmg by means of a colorimetric method using dinitrophenylhydrazone (DNPH); • GSH: reduced glutathione in the supernatant (sn) of the Hmg, obtained after precipitation with metaphosphoric acid (MPA), by means of a colorimetric method using dithiodinitrobenzene (DTNB); • CAT: catalase in the Hmg by a colorimetric method using potassium dichromate; • SOD: superoxide dismutase by a colorimetric method using SOD Reagent (xanthine, EDTA, nitroblue tetrazole, Na2CO3, BSA, i.e. bovine serum albumin); • GST: glutathione S-transferase in the supernatant by a colorimetric method using chlorodinitrobenzene (CDNB) and GSH; and • GPx: glutathione peroxidase in the supernatant after addition of GSH and t-BuOOH, heating and precipitation with MPA; followed by GSH method with DTNB. The assay was performed on the compounds (1)-(5) and (7)-(11) and on edaravone (E), as comparative compound.
The mean effect (n=5 experiments) of doxorubicin (D), i.e. "oxidized" animal, relative to the vehicle (V), the vehicle representing the healthy animal.
All the parameters, with the exclusion of Brain/BWi and Prot. Hmg, were normalized for total Hmg proteins. The D value standard deviations and the % incidence relative to V are given in italics.
The effect of the tested compounds on the "oxidized" animals was given as % inhibition relative to the percentage change due to doxorubicin alone. The effect of the compounds on the oxidized animals can be expressed both as a function of the values of the vehicle (healthy, vehicle only) and as a function of the value of its own (healthy, compound only): • Vehicle: percentage [(Compound+D)/V]x100/[(V+D)/V]x100 • Its own: percentage [(Compound+D)/Compound]x100/[(V+D)/V]x100
Again in this case, the mean % effect relative to doxorubicin alone could be given for all the parameters simultaneously, as an approximate index of effectiveness on the cerebral oxidative state of the animal.

The mark [1] stands for this setting: difference doxorubicin minus vehicle.
The mark [2] stands for this setting: doxorubicin alone, normalized for total Hmg proteins.

`COc1cccc2c1C(=O)c1c(O)c3c(c(O)c1C2=O)C[C@@](O)(C(=O)CO)C[C@@H]3O[C@H]1C[C@H](N)[C@H](O)[C@H](C)O1` [doxorubicin, reference compound]: under setting [1], the “Diff.D-V Brain/BWi” value is -1.3600 g/kg, the “Diff.D-V CAT” value is given as -0.3027 U/mg, the “Diff.D-V GPX” value is given as -0.5843 U/mg and the “Diff.D-V GST” value is -1.9000 µg/mg. Moreover, under setting [1], the “Diff.D-V Prot. Hmg” value is 0.7397 mg/mL, the “Diff.D-V Prot. Ox” value worked out at 0.4347 µmol H2O2/Mg and the “Diff.D-V SOD” value is -5.3400 mU/mg. Besides, the Brain/BWi (doxorubicin 16.7 mg/kg IP alone, mean of n=5 experiments) is reported as 18.2867 g/kg. Also, under setting [2], the CAT is listed as 1.9460 U/mg, the GPX was found to be 5.0010 U/mg, the GST was found to be 18.5067 µg/mg and the “Prot. Ox” value is 2.7720 µmol H2O2/Mg. The molecule also yielded an SOD under setting [2] of 31.2667 mU/mg.

Values taken from patent EP2345639A1, “Cyclic hydroxylamine derivatives, their preparation and use as antioxidants” (ABIOGEN PHARMA S.p.A., priority 2009, dated 2011).
